# Some of the results follow.
# B1: LlpA (Burkholderia cenocepacia) (protein)
# chain: MGSSHHHHHHSSGLVPRGSHKILGSNETLSAGNVVYSDNGQYHLAMQTDGNLVVYGPTGAVWQSQTSGSGGNRAVMQGDGNLVIYRADNTAAWSSKTAHPGAFLAVQDDGNVVIYWPRPAWASNTSDPATQQSAESKYLASGSTMSAGQTVTVAQYMLVFQADGNLVLYKNGGNPIWSTGTQGKGATYAVMQSDGNFVIYAGSTALWSTKTNGANGAQLVLQSDGNLVIYAPTAAWSTKFGLVTAPTSTSTSNNGPGSGICVGVCPPHPLNGNPFSPVGVGTTGLGFPTPGYPGAAF
# How the values were obtained:
# Test in all cases: glycan array binding signal (z-score within array); higher = stronger binding
# Conditions in all cases: glycan notation: IUPAC condensed, linker removed
# [1] = target: Neu5Ac(a2-6)Gal(b1-4)GlcNAc(b1-3)[Neu5Ac(a2-6)Gal(b1-4)GlcNAc(b1-6)]GalNAc
# In short: (§1)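 Glycan array binding is given as a within-array Z-score, which can be read as non-binding when negative. The arrays, 3228 of them, came from the Consortium for Functional Glycomics database and were retained only where the protein sequence was available. Z-scores were averaged across arrays of the same protein sequence at different concentrations or buffers and across linkers.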
# [2] = target: Neu5Ac(a2-6)Gal(b1-4)GlcNAc(b1-6)GalNAc
# In short: as §1
# [3] = target: Neu5Ac(a2-6)Gal(b1-4)GlcNAc(b1-6)[Gal(b1-3)GlcNAc(b1-3)]Gal(b1-4)Glc
# In short: as §1
# [4] = target: Neu5Ac(a2-6)Gal(b1-4)GlcNAc(b1-6)[Gal(b1-3)]GalNAc
# In short: as §1
# [5] = target: Neu5Ac(a2-6)Gal(b1-4)GlcNAc6S
# In short: as §1
# [6] = target: Neu5Ac(a2-6)GalNAc
# In short: as §1
# [7] = target: Neu5Ac(a2-6)GalNAc(b1-4)GlcNAc
# In short: as §1
# [8] = target: Neu5Ac(a2-6)GalNAc(b1-4)GlcNAc6S
# In short: as §1
# [9] = target: Neu5Ac(a2-6)GlcNAc(b1-4)GlcNAc
# In short: as §1
# [10] = target: Neu5Ac(a2-6)GlcNAc(b1-4)GlcNAc(b1-4)GlcNAc
# In short: as §1
# [11] = target: Neu5Ac(a2-8)Neu5Ac
# In short: as §1
# [12] = target: Neu5Ac(a2-8)Neu5Ac(a2-3)Gal(b1-3)GalNAc(b1-4)[Neu5Ac(a2-3)]Gal(b1-4)Glc
# In short: as §1
# [13] = target: Neu5Ac(a2-8)Neu5Ac(a2-3)Gal(b1-3)GalNAc(b1-4)[Neu5Ac(a2-8)Neu5Ac(a2-3)]Gal(b1-4)Glc
# In short: as §1
# [14] = target: Neu5Ac(a2-8)Neu5Ac(a2-3)Gal(b1-4)Glc
# In short: as §1
# [15] = target: Neu5Ac(a2-8)Neu5Ac(a2-3)Gal(b1-4)GlcNAc
# In short: as §1
# [16] = target: Neu5Ac(a2-8)Neu5Ac(a2-3)[Gal(b1-3)GalNAc(b1-4)]Gal(b1-4)Glc
# In short: as §1
# [17] = target: Neu5Ac(a2-8)Neu5Ac(a2-3)[GalNAc(b1-4)]Gal(b1-4)Glc
# In short: as §1
# [18] = target: Neu5Ac(a2-8)Neu5Ac(a2-8)Neu5Ac
# In short: as §1
# [19] = target: Neu5Ac(a2-8)Neu5Ac(a2-8)Neu5Ac(a2-3)Gal(b1-4)Glc
# In short: as §1
# [20] = target: Neu5Ac(a2-8)Neu5Ac(a2-8)Neu5Ac(a2-3)[Gal(b1-3)GalNAc(b1-4)]Gal(b1-4)Glc
# In short: as §1
# [21] = target: Neu5Ac(a2-8)Neu5Ac(a2-8)Neu5Ac(a2-3)[GalNAc(b1-4)]Gal(b1-4)Glc
# In short: as §1
# [22] = target: Neu5Ac(a2-8)Neu5Ac(a2-8)Neu5Ac(a2-8)Neu5Ac(a2-3)[GalNAc(b1-4)]Gal(b1-4)Glc
# In short: as §1
# [23] = target: Neu5Ac(a2-8)Neu5Gc(a2-3)Gal(b1-4)GlcNAc
# In short: as §1
# [24] = target: Neu5Ac(b2-6)Gal(b1-4)GlcNAc
# In short: as §1
# [25] = target: Neu5Ac(b2-6)GalNAc
# In short: as §1
# [26] = target: Neu5Ac9Ac(a2-3)Gal(b1-3)GlcNAc
# In short: as §1
# [27] = target: Neu5Ac9Ac(a2-3)Gal(b1-4)GlcNAc
# In short: as §1
# [28] = target: Neu5Ac9Ac(a2-6)Gal(b1-4)GlcNAc
# In short: as §1
# [29] = target: Neu5Gc(a2-3)Gal(b1-3)GlcNAc
# In short: as §1
# [30] = target: Neu5Gc(a2-3)Gal(b1-3)[Fuc(a1-4)]GlcNAc
# In short: as §1
# [31] = target: Neu5Gc(a2-3)Gal(b1-4)Glc
# In short: as §1
# [32] = target: Neu5Gc(a2-3)Gal(b1-4)GlcNAc
# In short: as §1
# [33] = target: Neu5Gc(a2-3)Gal(b1-4)GlcNAc(b1-3)Gal(b1-4)GlcNAc(b1-2)Man(a1-3)[Neu5Gc(a2-3)Gal(b1-4)GlcNAc(b1-3)Gal(b1-4)GlcNAc(b1-2)Man(a1-6)]Man(b1-4)GlcNAc(b1-4)GlcNAc
# In short: as §1
# [34] = target: Neu5Gc(a2-3)Gal(b1-4)[Fuc(a1-3)]GlcNAc
# In short: as §1
# [35] = target: Neu5Gc(a2-6)Gal(b1-4)GlcNAc
# In short: as §1
# [36] = target: Neu5Gc(a2-6)GalNAc
# In short: as §1
# [37] = target: Neu5Gc(a2-8)Neu5Ac(a2-3)Gal(b1-4)GlcNAc
# In short: as §1
# [38] = target: Neu5Gc(a2-8)Neu5Gc(a2-3)Gal(b1-4)GlcNAc
# In short: as §1
binder,measurement,setting,value
B1,glycan array binding signal (z-score),[1],0.067
same,glycan array binding signal (z-score),[2],0.313
same,glycan array binding signal (z-score),[3],0.132
same,glycan array binding signal (z-score),[4],0.659
same,glycan array binding signal (z-score),[5],-0.965
same,glycan array binding signal (z-score),[6],-0.942
same,glycan array binding signal (z-score),[7],-1.32
same,glycan array binding signal (z-score),[8],0.676
same,glycan array binding signal (z-score),[9],-0.128
same,glycan array binding signal (z-score),[10],-0.76
same,glycan array binding signal (z-score),[11],0.126
same,glycan array binding signal (z-score),[12],0.988
same,glycan array binding signal (z-score),[13],0.947
same,glycan array binding signal (z-score),[14],-1.11
same,glycan array binding signal (z-score),[15],-0.759
same,glycan array binding signal (z-score),[16],-0.216
same,glycan array binding signal (z-score),[17],-0.208
same,glycan array binding signal (z-score),[18],0.546
same,glycan array binding signal (z-score),[19],0.253
same,glycan array binding signal (z-score),[20],-0.618
same,glycan array binding signal (z-score),[21],0.351
same,glycan array binding signal (z-score),[22],0.029
same,glycan array binding signal (z-score),[23],-1.03
same,glycan array binding signal (z-score),[24],0.391
same,glycan array binding signal (z-score),[25],-0.883
same,glycan array binding signal (z-score),[26],-0.027
same,glycan array binding signal (z-score),[27],-0.412
same,glycan array binding signal (z-score),[28],0.934
same,glycan array binding signal (z-score),[29],-0.35
same,glycan array binding signal (z-score),[30],0.289
same,glycan array binding signal (z-score),[31],0.058
same,glycan array binding signal (z-score),[32],-0.079
same,glycan array binding signal (z-score),[33],-0.02
same,glycan array binding signal (z-score),[34],-0.189
same,glycan array binding signal (z-score),[35],1.6
same,glycan array binding signal (z-score),[36],0.385
same,glycan array binding signal (z-score),[37],-0.667
same,glycan array binding signal (z-score),[38],-1.13

# Not a retest: an excerpt of the list.
binder,measurement,setting,value
B1,glycan array binding signal (z-score),[28],0.934
same,glycan array binding signal (z-score),[29],-0.35
same,glycan array binding signal (z-score),[30],0.289

# Reference: the supplement of paper PMC8728848
